The chains behind the UniProt entries cited, without tags or fusion partners.
UniProt Q91ZW3: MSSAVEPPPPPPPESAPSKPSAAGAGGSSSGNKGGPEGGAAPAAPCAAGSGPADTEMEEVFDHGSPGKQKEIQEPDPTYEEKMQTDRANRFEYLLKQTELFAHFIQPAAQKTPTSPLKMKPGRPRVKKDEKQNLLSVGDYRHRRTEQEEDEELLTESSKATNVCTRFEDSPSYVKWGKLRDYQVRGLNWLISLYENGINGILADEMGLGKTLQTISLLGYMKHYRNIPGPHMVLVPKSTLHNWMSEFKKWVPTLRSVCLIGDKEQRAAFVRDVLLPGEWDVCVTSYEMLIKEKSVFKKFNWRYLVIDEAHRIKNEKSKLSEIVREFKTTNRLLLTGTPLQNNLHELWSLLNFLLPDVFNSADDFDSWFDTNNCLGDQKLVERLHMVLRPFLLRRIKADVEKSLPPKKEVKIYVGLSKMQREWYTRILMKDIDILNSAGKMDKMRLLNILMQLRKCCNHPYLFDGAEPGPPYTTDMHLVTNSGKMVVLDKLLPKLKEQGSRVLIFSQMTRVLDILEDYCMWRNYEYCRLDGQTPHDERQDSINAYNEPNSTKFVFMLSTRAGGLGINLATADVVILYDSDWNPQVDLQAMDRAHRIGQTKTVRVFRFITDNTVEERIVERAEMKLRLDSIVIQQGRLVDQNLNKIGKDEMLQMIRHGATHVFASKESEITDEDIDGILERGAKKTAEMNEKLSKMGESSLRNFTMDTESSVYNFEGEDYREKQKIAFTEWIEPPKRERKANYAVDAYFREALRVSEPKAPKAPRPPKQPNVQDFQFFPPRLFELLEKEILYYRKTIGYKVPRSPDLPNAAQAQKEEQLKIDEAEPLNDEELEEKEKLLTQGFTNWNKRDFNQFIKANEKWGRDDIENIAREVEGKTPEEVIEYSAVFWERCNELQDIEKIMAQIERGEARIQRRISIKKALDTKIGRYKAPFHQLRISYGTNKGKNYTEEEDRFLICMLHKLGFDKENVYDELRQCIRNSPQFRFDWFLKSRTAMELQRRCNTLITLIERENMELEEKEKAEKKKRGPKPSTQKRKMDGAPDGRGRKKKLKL
UniProt A2BH40: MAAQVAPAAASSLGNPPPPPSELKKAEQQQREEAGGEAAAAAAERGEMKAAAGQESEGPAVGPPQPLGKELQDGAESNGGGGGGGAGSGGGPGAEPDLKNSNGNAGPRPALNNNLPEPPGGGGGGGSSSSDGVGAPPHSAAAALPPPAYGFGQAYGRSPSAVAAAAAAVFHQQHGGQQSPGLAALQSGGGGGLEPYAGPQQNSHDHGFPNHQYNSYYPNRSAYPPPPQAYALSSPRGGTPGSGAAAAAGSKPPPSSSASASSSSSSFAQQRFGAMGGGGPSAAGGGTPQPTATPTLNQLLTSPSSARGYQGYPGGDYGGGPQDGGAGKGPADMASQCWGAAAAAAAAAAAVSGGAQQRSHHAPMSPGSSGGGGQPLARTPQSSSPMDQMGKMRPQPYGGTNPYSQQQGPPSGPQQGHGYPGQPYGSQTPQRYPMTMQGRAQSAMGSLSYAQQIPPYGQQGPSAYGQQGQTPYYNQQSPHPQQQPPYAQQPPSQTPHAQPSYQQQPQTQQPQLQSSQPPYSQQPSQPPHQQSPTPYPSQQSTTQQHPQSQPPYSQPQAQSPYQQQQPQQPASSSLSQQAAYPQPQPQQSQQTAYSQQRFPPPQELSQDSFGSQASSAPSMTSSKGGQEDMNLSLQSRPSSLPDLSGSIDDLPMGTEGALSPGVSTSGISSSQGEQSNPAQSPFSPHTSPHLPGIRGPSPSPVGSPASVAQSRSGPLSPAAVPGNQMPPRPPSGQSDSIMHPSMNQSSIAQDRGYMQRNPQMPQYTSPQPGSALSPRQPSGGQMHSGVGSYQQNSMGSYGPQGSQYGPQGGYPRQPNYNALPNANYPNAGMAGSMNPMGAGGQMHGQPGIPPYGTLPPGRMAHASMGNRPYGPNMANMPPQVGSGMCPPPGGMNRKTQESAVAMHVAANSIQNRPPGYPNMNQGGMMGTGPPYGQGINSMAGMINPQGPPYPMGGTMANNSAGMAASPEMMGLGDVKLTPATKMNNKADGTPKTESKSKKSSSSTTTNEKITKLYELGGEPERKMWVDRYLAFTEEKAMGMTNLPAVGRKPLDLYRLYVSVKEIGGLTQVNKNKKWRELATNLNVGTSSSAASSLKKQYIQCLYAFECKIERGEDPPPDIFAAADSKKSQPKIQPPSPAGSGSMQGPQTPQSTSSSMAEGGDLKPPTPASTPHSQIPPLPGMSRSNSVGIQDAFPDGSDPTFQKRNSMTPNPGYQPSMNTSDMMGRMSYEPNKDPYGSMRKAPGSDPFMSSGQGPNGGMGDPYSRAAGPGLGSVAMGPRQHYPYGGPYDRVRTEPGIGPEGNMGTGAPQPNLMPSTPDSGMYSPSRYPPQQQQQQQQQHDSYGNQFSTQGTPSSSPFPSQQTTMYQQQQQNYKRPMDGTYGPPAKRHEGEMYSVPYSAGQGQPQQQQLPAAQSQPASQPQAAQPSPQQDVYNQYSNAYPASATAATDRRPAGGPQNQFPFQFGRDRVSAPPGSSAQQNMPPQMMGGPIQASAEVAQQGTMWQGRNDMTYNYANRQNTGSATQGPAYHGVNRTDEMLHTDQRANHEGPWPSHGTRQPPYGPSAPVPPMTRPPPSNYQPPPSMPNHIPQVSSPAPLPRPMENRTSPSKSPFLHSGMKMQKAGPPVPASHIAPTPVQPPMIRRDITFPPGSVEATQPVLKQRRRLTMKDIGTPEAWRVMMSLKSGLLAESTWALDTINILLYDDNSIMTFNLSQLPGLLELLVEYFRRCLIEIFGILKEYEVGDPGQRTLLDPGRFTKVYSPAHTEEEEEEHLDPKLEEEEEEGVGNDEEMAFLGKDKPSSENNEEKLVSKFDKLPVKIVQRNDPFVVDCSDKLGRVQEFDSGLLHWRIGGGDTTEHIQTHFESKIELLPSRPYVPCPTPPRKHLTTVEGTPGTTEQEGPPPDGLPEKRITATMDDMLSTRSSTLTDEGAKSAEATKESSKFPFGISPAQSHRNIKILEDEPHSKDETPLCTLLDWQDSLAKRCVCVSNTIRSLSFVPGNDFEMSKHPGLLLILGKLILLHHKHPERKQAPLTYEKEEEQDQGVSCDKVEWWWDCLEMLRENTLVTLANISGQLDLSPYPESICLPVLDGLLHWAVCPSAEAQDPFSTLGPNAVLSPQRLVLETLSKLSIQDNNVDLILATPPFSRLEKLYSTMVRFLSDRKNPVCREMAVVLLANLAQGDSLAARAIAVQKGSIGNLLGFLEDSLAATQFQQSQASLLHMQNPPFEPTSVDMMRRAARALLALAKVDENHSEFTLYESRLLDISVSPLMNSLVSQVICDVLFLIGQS
UniProt Q91YE5: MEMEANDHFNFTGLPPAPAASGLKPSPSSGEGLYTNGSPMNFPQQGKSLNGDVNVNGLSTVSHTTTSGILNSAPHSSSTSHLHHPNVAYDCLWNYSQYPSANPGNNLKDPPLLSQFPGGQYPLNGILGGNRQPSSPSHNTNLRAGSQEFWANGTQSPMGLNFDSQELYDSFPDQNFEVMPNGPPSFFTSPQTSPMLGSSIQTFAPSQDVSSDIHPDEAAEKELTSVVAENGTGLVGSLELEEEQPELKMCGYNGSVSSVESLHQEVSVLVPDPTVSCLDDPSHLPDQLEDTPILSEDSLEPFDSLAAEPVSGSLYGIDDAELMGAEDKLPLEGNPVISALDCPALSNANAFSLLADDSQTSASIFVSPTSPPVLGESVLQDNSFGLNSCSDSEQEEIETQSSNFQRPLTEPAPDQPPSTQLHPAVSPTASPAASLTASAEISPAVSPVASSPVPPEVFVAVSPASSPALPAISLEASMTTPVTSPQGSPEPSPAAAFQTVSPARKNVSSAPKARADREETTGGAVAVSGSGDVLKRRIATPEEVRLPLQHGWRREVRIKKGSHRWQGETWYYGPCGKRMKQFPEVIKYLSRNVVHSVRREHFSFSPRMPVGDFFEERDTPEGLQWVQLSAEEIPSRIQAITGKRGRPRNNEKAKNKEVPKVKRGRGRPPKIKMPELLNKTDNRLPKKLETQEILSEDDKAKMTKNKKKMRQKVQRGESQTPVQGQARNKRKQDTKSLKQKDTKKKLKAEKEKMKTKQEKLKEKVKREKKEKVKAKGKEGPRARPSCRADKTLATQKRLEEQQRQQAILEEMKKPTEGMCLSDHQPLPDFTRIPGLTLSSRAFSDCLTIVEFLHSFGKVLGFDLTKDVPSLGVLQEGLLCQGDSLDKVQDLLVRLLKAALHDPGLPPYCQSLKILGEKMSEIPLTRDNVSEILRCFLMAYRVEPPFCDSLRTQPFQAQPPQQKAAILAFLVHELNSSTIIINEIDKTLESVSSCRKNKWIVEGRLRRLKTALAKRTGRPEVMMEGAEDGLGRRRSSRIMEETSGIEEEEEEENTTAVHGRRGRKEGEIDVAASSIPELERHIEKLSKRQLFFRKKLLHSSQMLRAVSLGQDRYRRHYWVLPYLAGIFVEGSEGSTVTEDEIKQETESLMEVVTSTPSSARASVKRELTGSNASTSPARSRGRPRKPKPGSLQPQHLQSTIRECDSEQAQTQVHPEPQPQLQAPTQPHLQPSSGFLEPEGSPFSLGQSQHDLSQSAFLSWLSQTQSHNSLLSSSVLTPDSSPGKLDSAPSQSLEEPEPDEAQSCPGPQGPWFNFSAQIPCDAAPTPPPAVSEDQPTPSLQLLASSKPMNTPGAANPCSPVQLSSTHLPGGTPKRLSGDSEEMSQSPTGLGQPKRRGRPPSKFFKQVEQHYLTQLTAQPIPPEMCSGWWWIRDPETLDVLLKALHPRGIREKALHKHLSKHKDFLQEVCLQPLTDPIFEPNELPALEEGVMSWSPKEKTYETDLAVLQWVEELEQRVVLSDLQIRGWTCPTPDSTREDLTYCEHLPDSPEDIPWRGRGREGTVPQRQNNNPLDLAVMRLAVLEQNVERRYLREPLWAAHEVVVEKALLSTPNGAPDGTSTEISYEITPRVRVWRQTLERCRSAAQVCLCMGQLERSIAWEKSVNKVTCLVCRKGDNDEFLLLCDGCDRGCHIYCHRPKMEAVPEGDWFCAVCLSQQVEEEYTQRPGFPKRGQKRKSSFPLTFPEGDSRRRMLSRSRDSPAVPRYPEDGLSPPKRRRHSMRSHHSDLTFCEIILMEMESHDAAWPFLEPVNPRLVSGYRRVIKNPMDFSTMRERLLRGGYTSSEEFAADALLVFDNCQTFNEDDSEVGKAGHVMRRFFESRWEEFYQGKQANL
UniProt Q61103: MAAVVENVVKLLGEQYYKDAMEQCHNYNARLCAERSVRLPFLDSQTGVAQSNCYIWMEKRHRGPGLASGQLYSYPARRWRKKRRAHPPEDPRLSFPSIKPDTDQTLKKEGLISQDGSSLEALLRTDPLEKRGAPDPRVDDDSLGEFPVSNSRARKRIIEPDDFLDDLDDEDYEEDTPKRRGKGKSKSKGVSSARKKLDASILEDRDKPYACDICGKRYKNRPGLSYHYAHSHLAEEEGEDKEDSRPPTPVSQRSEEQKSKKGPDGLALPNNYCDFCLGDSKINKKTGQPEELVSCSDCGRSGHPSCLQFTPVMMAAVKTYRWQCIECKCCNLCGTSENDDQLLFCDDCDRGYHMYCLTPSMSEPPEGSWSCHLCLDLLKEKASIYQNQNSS
UniProt O54941: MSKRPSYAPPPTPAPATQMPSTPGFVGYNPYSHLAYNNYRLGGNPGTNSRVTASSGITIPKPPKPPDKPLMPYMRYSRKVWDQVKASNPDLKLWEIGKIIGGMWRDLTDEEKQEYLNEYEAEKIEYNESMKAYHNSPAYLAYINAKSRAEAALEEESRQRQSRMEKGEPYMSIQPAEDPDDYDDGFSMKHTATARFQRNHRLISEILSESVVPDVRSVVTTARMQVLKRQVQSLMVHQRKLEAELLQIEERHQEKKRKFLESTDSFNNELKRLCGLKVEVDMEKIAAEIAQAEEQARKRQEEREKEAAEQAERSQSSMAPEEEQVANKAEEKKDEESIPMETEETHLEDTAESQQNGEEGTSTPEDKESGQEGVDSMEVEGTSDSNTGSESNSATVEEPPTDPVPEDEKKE

In paper doi:10.1101/2022.09.01.506203:

B1: Bud31 (protein, UniProt Q6PGH1 1-144)
chain: MPKVKRSRKAPPDGWELIEPTLDELDQKMREAETEPHEGKRKVESLWPIFRIHHQKTRYIFDLFYKRKAISRELYEYCIKEGYADKNLIAKWKKQGYENLCCLRCIQTRDTNFGTNCICRVPKSKLEVGRIIECTHCGCRGCSG
B2: Nanog (protein, UniProt Q80Z64 1-305)
chain: MSVGLPGPHSLPSSEEASNSGNASSMPAVFHPENYSCLQGSATEMLCTEAASPRPSSEDLPLQGSPDSSTSPKQKLSSPEADKGPEEEENKVLARKQKMRTVFSQAQLCALKDRFQKQKYLSLQQMQELSSILNLSYKQVKTWFQNQRMKCKRWQKNQWLKTSNGLIQKGSAPVEYPSIHCSYPQGYLVNASGSLSMWGSQTWTNPTWSSQTWTNPTWNNQTWTNPTWSSQAWTAQSWNGQPWNAAPLHNFGEDFLQPYVQLQQNFSASDLEVNLEATRESHAHFSTPQALELFLNYSVTPPGEI
B3: Znf280d (protein, UniProt Q68FE8 1-974)
chain: MVTTYIKSDLQLDGRQFFQPKDNLKMAELFMECEEEELEPWQKKVKEVEEDDDDEPIFVAEIASSKPAISNILNRVNPSSHSRGIKNGILNRGFTASFKPTSQRCLNSASNPVAALPVNFHPESRSSDSSVIVQPFSKPGYVTNSPRVLSNNSSELLFDLTQDTGLSHYQGGPTLSIAGLNETSFLSKRPSGSDISSVNPKKPKPSENTSGIDASSVISSEKSPSVISLQVVPSQGANCSSSQSKNGTTFPRACPKCDIHFNLLDPLKNHMTYCCPDMINNFLGLTKADNLNSANEAKTLESEKGKLIMLVNDFYYGKHEGDVLEEQKTHTTFKCFSCLKVLKNNIRFMNHMKHHLELEKQSSESWEKHTTCQHCYRQFPTPFQLQCHIESTHTPHEFSTICKICELSFETEQILLQHMKDNHKPGEMPYICQVCNYRSSLFSEVESHFRTSHENTKNLLCPFCLKVIKIATPYMHHYMKHQKKGIHRCTKCRLQFLTCKEKMDHKTQHHRTFVKPKQLEGLPPGTKVTIRASVGPLQSGSSVTPSISPSTSTLQLSPPEPDNVTAKNHVKLTTSTPNTTISDPSKANETKSNGSKSKNKSKVSNMQKKQSTLSSSNKKSKVNTALRNLRLRRGVHECIECSSEVKDFANHFPTYVHCSFCRYNTSCSKAYVNHMMSFHSNRPSKRYCIFKKHSENLRGISLVCLNCDFLTDVSGLDNMATHLSQHETHSCRVLVEQVSVCIPTSERLSEIKTEAPTKGQEPVSKETARHSRAEGEPGASHSGSKQDKVPSSEEGTGCDASVCEAAAATHCEKDVTVSDTENVSSSKNILSHDPDVGTDTMEKEEKTHHACQEMELKVDQSSESTNPTEAELSSETRQGLQLTSGDVGIDQFLRQGDEPKSVNSDASDPGSVRLEPLTPSEVLEYEATEILHDGDDPSANTSDTVSDQTGGSPGGSNPCRAETAVDLADGEERS
B4: Baz1b (protein, UniProt Q9Z277 1-1479)
chain: MAPLLGRKPFPLVKPLPGEEPLFTIPHTQEAFRTREEYEARLERYSERIWTCKSTGSSQLTHKEAWEEEQEVAELLKEEFPNWYEKLVLEMVHHNTASLEKLVDSAWLEIMTKYAVGEECDFEVGKEKMLKVKIVKIHPLEKVDEEAVEKKSDGACDSPSSDKENSSQMAQDLQKKETVVKEDEGRRESINDRARRSPRKLPTSLKKGERKWAPPKFLPHKYDVKLQNEDKIISNVPADSLIRTERPPNKEILRYFIRHNALRAGTGENAPWVVEDELVKKYSLPSKFSDFLLDPYKYMTLNPSTKRRNTGSPDRKPSKKPKRDSSSLSSPLNPKLWCHVHLEKSLNGPPLKVKNSKNSKSPEEHLEGVMKIMSPNNNKLHSFHIPKKGPAAKKPGKHSDKPLKAKGRGKGILNGQKSTGNSKSPSKCVKTPKTKMKQMTLLDMAKGTQKMTRTPRSSGGVPRSSGKPHKHLPPAALHLIAYYKENKDKEDKKSALSCVISKTARLLSNEDRARLPEELRALVQKRYELLEHKKRWASMSEEQRKEYLKKKRQELKERLREKAKERREREMLERLEKQKRFEDQELGGRNLPAFRLVDTPEGLPNTLFGDVALVVEFLSCYSGLLLPDAQYPITAVSLMEALSADKGGFLYLNRVLVILLQTLLQDEIAEDYGELGMKLSEIPLTLHSVSELVRLCLRRCDVQEDSEGSETDDNKDSTPFEDNEVQDEFLEKLETSEFFELTSEEKLRILTALCHRILMTYSVQDHMETRQQVSAELWKERLAVLKEENDKKRAEKQKRKEMEARNKENGKEENVLGKVDRKKEIVKIEQQVEVEADDMISAVKSRRLLSMQAKRKREIQERETKVRLEREAEEERMRKHKAAAEKAFQEGIAKAKLVLRRTPIGTDRNHNRYWLFSNEVPGLFIEKGWVHNSIDYRFKHHRKDHSNLPDDDYCPRSKKANLGKNASVNAHHGPALEAVETTVPKQGQNLWFLCDSQKELDELLSCLHPQGIRESQLKERLEKRYQEITHSIYLARKPNLGLKSCDGNQELLNFLRSDLIEVATRLQKGGLGYMEGTSEFEARVISLEKLKDFGECVIALQASVIKKFLQGFMAPKQKKRKLQSEDSTKSEEVDEEKKMVEEAKVASALEKWKTAIREAQTFSRMHVLLGMLDACIKWDMSAENARCKVCRKKGEDDKLILCDECNKAFHLFCLRPALYEVPDGEWQCPACQPPTARRNSRGRNYTEESTSEGSEGDESGEEEEEEEEEEEEEEDYEVAGLRLRPRKTIRGKQSVIPAARPGRPPGKKSHPARRSRPKDDPEVDDLVLQTKRISRRQSLELQKCEDILHKLVKYRFSWPFREPVTRDEAEDYYDVIEHPMDFQTIQNKCSCGNYRSVQEFLTDMKQVFANAELYNCRGSHVLSCMEKTEQCLLALLQKHLPGHPYVRRKRRKFPDRLADDEGDSDSESVGQSRGRRQKK

These molecules were tested against flag-tagged Smarca5/Snf2h (endogenous Smarca5 with GFP-3XFLAG tag) (mouse) (UniProt Q91ZW3) (assay: affinity purification with mass spectrometry).

Molecule	binding
Arid1a (BAF250a) (from UniProt A2BH40 1-2283)	binds
Baz2a (from UniProt Q91YE5 1-1889)	binds
Baz2b (from UniProt A2AUY4 1-2123)	binds
Cecr2 (from UniProt E9Q2Z1 1-1453)	binds
Dpf2 (from UniProt Q61103 1-391)	binds
Smarce1 (from UniProt O54941 1-411)	binds
B1	binds
B2	binds
B3	binds
B4	binds

These are yes or no findings as the source states them, for the method shown. Binding seen in cells or lysates may run through a third protein. These calls come from enrichment with a bait or labelling near it, and not all partners need be listed.
